Laboratory results taken from patent publication US5739311.

Experiments:
Assay in all cases: enzyme reaction in vitro
Cla I = conditions: PS, all linkages of (-) strand; (+) strand phosphodiester; complete cleavage; 20 units, 0.5 ug DNA, 1 h; purified native protein; protein details: New England Biolabs
Msp I = target: T1, Msp I (UniProt P11405); conditions: PS, all linkages of (-) strand; (+) strand phosphodiester; partial cleavage; 20 units, 0.5 ug DNA, 1 h; purified native protein; protein details: New England Biolabs; only the motif is given
T1 sequence (looked up, limits assumed): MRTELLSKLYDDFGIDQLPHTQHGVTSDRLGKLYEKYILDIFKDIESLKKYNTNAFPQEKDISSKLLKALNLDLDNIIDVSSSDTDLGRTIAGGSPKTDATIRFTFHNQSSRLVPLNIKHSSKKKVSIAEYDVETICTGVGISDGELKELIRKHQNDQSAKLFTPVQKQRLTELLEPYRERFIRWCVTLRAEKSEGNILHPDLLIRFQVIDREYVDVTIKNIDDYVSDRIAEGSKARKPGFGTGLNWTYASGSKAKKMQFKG

ScrF I = target: T2, ScrF I (UniProt O34104); conditions: complete cleavage; 100 mM NaCl, 5 mM MgCl2; purified native protein; protein details: New England Biolabs; single-stranded DNA
T2 sequence (looked up, limits assumed): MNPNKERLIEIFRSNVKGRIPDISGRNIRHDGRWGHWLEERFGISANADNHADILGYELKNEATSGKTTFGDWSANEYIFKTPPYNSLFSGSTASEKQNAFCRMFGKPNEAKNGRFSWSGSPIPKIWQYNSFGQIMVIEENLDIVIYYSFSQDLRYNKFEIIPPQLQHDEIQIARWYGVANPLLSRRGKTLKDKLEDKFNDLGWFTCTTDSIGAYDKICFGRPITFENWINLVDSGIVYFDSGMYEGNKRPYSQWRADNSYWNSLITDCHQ

Mva I = target: T3, Mva I (UniProt Q8RNV5); conditions: no significant cleavage; 25 mM NaCl, 10 mM MgCl2; purified native protein; protein details: Boehringer Mannheim; single-stranded DNA
T3 sequence (looked up, limits assumed): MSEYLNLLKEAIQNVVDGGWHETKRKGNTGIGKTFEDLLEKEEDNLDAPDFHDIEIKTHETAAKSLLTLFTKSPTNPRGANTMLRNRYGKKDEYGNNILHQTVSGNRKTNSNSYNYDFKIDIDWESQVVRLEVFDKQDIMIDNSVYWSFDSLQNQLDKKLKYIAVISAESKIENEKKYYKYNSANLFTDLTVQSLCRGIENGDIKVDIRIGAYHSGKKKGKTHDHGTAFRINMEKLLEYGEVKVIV

BstN I = conditions: no significant cleavage of single strand; 50 mM NaCl-type standard conditions of Example II; purified native protein; protein details: New England Biolabs; single-stranded DNA
HinP I = HinP I (UniProt Q5I6E6); conditions: PS, all linkages of (-) strand; (+) strand phosphodiester; complete cleavage; optimum 50 mM NaCl, 10 mM MgCl2 (Table 2); purified native protein; protein details: New England Biolabs; only the motif is given
Hae III = target: T4, Hae III (UniProt O68584); conditions: PS, all linkages of (-) strand; (+) strand phosphodiester; complete cleavage; optimum 0 mM NaCl, 2-5 mM MgCl2 (Table 2); purified native protein; protein details: New England Biolabs; only the motif is given
T4 sequence (looked up, limits assumed): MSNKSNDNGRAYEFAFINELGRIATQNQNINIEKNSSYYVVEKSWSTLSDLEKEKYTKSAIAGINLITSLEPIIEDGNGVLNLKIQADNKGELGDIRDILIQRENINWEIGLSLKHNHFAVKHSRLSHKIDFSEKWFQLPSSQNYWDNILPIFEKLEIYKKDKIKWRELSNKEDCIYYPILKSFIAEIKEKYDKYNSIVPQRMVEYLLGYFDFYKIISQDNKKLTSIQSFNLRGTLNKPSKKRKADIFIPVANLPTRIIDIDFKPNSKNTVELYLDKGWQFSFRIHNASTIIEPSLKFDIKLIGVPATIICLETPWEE

Taq alpha I = target: T5, Taq alpha I (UniProt P14386); conditions: PS, all linkages of (-) strand; (+) strand phosphodiester; complete cleavage; optimum 50 mM NaCl, 1-2 mM MgCl2 (Table 2); purified native protein; protein details: New England Biolabs; only the motif is given
T5 sequence (looked up, limits assumed): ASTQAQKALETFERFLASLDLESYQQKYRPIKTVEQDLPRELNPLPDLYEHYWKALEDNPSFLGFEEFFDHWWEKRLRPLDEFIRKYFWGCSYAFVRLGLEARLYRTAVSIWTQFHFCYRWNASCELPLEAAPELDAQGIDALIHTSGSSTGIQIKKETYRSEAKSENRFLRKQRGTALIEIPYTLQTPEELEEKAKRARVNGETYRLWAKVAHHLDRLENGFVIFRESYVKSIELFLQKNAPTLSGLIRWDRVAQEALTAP

ATCGAT (double strand) [M13 dsDNA, Cla I site]
activity on this sequence (Cla I): active

CCGG (double strand) [M13 dsDNA, Msp I site]
activity on this sequence (Msp I): active

GAAGCCCGGACAGCCCAGGGGAGCCCGGCCAGGCGCTCGAGAAGCCCGGACAGCCCAGGGGAGCCCTCGCCTATTGTTAAAGTGTGTCCT [single-stranded multi-site substrate]
activity on this sequence (ScrF I): active
activity on this sequence (Mva I): not active
activity on this sequence (BstN I): not active

GCGC (double strand) [M13 dsDNA, HinP I site]
activity on this sequence (HinP I): active

GGCC (double strand) [M13 dsDNA, Hae III site]
activity on this sequence (Hae III): active

TCGA (double strand) [M13 dsDNA, Taq alpha I site]
activity on this sequence (Taq alpha I): active

For some assays here: A negative result means that nothing was seen under these conditions. For some assays here: Tags and fusion partners may be left off the protein sequences shown. For some assays here: Construct, isoform or probe ends are uncertain for at least one entry.
